Several values for one entry are separate records, joined by “and”; a condition that tells them apart may be missing. Equal values may be shown once. Where a name gives a salt, the structure may show the parent alone. Some of the results follow. Repeats in this data set agree poorly, so a single value says little.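 HEK293T cells were given each compound shortly before transfection with a reporter in which red mCherry is followed by the SARS-CoV-2 frameshift element and then GFP in the −1 frame, so GFP appears only after frameshifting.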

For 34 compounds, percent viability results are on record in the supplement of paper PMC8256030.

The test deals with HEK293T. The experiment in a line: percent viability (nuclei count) relative to control; higher = more viable cells. As to conditions: 10 µM; 24 h.
With `CCN(Cc1ccncc1)C(=O)C(CO)c1ccccc1` (centres undefined), the percent viability turned out to be 167%.
Consider `COc1ccc2c(c1)C(=O)N(CCc1ccc(S(=O)(=O)NC(=O)NC3CCCCC3)cc1)C(=O)C2(C)C` [Gliquidone], for which the percent viability is 261%.
The result for `CN(Cc1cnc2nc(N)nc(N)c2n1)c1ccc(C(=O)NC(CCC(=O)O)C(=O)O)cc1` (centres undefined) reads 315%; that for `NCc1ccc(S(N)(=O)=O)cc1` [mafenide], 153%; that for `Cc1cnc(NC(=O)C2=C(O)c3ccccc3S(=O)(=O)N2C)s1`, 360%.
The result for `C[C@@H]1C(=O)NC2=Nc3cccc(Cl)c3CN21` [quazinone] reads 271%.
For the compound `C[C@H](NC(=O)c1cnc2n1[C@](C)(Cc1ccc(C#N)cc1)C(=O)N2c1cc(Cl)c(F)c(Cl)c1)C(=O)NC1(c2ccccn2)CC1`, the percent viability was 466%.
The result for `Oc1ccc(Cl)c2cccnc12` [cloxiquine] reads 152%.
For the compound `C=C1[C@H](CO)[C@@H](O)C[C@@H]1n1cnc2c(=O)[nH]c(N)nc21` [entecavir], the percent viability is 159%.
Next, `CC(C(=O)O)c1ccc2c(c1)CC(=O)c1ccccc1S2` (centres undefined) [zaltoprofen]: 212%.
As to `Cc1scc2c1N(C(=O)CN1CCN(C)CC1)c1ccccc1NC2=O` [Telenzepine·2HCl], the percent viability stood at 124%.
The result for `COC(=O)[C@@H](N)Cc1ccc(O)c(O)c1` [melevodopa] reads 156%.
As to `CO[C@H]1C[C@H](O[C@@H]2/C(C)=C/C[C@@H]3C[C@@H](C[C@]4(CC[C@H](C)[C@@H](C5CCCCC5)O4)O3)OC(=O)[C@@H]3C=C(C)/C(=N/O)[C@H]4OC/C(=C\C=C\[C@@H]2C)[C@]43O)O[C@@H](C)[C@@H]1O`, the percent viability worked out at 355%.
As for `O=C1OC(c2ccc(O)cc2)(c2ccc(O)cc2)c2ccccc21` [phenolphthalein], the percent viability is 166%.
With `C=CCOc1ccc(CC(=O)O)cc1Cl` [alclofenac], the percent viability was 161%.
On to `CCN(CC)CC(=O)Nc1c(C)cccc1C` [Lidocaine·HCl·H2O], for which the percent viability turned out to be 316%.
Next, `CC(O)C(=O)O.N` (centres undefined): 156%; `CN(C)CCN(Cc1ccccc1)c1ccccn1`: 124%.
Next, `Oc1ccc(OCc2ccccc2)cc1` [monobenzone]: 65.6%.
Next, `CC[C@]1(O)C[C@@H]2CN(CCc3c([nH]c4ccccc34)[C@@](C(=O)OC)(c3cc4c(cc3OC)N(C)[C@H]3[C@@](O)(C(=O)OC)[C@H](OC(C)=O)[C@]5(CC)C=CCN6CC[C@]43[C@@H]65)C2)C1` [vinblastine]: 9.6%; `CC1(C)O[C@@H]2C[C@H]3[C@@H]4C[C@H](F)C5=CC(=O)CC[C@]5(C)[C@H]4[C@@H](O)C[C@]3(C)[C@]2(C(=O)CO)O1` [fludroxycortide]: 293% and 221%; `CC(C)(Oc1ccc(Cl)cc1)C(=O)O` [Clofibric acid]: 120%.
For `O=C(N[C@@H](Cc1c[nH]c2ccccc12)C(=O)O)c1ccc(Cl)cc1` [benzotript], the percent viability turned out to be 269%.
Consider `O=C(OCC(O)CO)c1ccccc1Nc1ccnc2cc(Cl)ccc12` (centres undefined) [glafenine], for which the percent viability amounted to 235%.
The result for `OC(CCN1CCCC1)(c1ccccc1)C1CCCCC1` (centres undefined) [procyclidine] reads 160%; that for `COc1ccccc1Oc1c(NS(=O)(=O)c2ccc(C(C)(C)C)cc2)nc(-c2ncccn2)nc1OCCO` [bosentan], 228%.
With `CC(=O)OCC(=O)[C@@]1(O)CC[C@H]2[C@@H]3CCC4=CC(=O)CC[C@]4(C)[C@H]3[C@@H](O)C[C@@]21C` [Hydrocortisone 21-acetate], the percent viability amounted to 133%.
The result for `O=C(COc1ccc(Cl)cc1)N1CCN(Cc2ccc3c(c2)OCO3)CC1` [fipexide] reads 321%.
For the compound `COc1cc([C@@H]2c3cc4c(cc3[C@@H](O[C@@H]3O[C@@H]5CO[C@@H](C)O[C@H]5[C@H](O)[C@H]3O)[C@H]3COC(=O)[C@H]23)OCO4)cc(OC)c1O`, the percent viability is 125%.
The result for `CCn1cc(C(=O)O)c(=O)c2cnc(N3CCCC3)nc21` [piromidic acid] reads 373%; that for `C=C1c2cccc(O)c2C(O)=C2C(=O)[C@]3(O)C(O)=C(C(N)=O)C(=O)[C@@H](N(C)C)[C@@H]3[C@@H](O)[C@H]12`, 123%; that for `CONC(=O)Nc1ccc(-c2sc3c(c2CN(C)Cc2ccccc2)c(=O)n(-c2ccccc2)c(=O)n3Cc2c(F)cccc2F)cc1` [sufugolix], 229%.
Next, `CCN(CC)C(=O)c1ccc(O)c(OC)c1` [etamivan]: 234%; `C[C@@H]1C[C@H]2[C@@H]3CCC4=CC(=O)C=C[C@]4(C)[C@@]3(F)[C@@H](O)C[C@]2(C)[C@H]1C(=O)CO` [desoximetasone]: 196%.
